Some of the results follow.
target: OsWRKY34 (Oryza sativa, UniProt Q0JBA9 1-250); test: protein-binding microarray (RPBM); PBS, 2% BSA, 51.3 ng/ul salmon testes DNA, 50 uM zinc acetate, 200 nM TF, 25 C, 1 h; high values mean tight binding; settings: protein: recombinant; tags: N-terminal polyhistidine and DsRed monomer fusion (pET32a); label: CyDye5-dUTP incorporated in the synthesized complementary strand; 3' TTTTT single-stranded linker to array surface; dsDNA, one strand shown
Method in brief: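 Transcription factors were made in E. coli BL21-CodonPlus as N-terminal fusions to a polyhistidine tag and DsRed, then purified on Ni–NTA. After primer extension with Cy5-dUTP and blocking with 2% BSA, a custom Agilent array was exposed for 1 h at 25 °C to 200 nM protein in PBS, 2% BSA, salmon testes DNA and 50 µM zinc acetate. Washed arrays were scanned on an Axon 4000B, and the binding signal is per-feature fluorescence intensity in arbitrary units.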

Sequences of proteins named here, by UniProt entry; tags and fusion partners are left off.
UniProt Q0JBA9, entry or part of it: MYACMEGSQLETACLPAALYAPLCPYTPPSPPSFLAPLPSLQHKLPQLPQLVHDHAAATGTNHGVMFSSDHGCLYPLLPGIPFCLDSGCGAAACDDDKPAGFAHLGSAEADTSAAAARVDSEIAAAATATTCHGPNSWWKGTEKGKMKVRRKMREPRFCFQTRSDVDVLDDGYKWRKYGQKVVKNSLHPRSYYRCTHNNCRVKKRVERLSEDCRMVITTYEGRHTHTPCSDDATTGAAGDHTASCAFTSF

In order of rising binding signal:
1. GGTTACCTCGGCAGCTAGCAGTCATCACCACCACGCGAGCCGGAGTCACCTAGTGCAG  8030 fluorescence intensity (a.u.)
2. GCCGCTACATTCAGGGAAACATATATAGATTTGTCTTTCACGGAGTCACCTAGTGCAG  8050 fluorescence intensity (a.u.)
3. TCTTTAGAAGTTGCTTATCATGTAGAGTGTGTGTGCGTGTCGGAGTCACCTAGTGCAG  8050 fluorescence intensity (a.u.)
4. GGGAGGCGAGTGGAGTGCGTGTCGACGTGTCCTACTCATCCGGAGTCACCTAGTGCAG  8110 fluorescence intensity (a.u.)
5. AAGATACTTAACACTTGTTCCAACCTGGACTTCAGAGCACCGGAGTCACCTAGTGCAG  8180 fluorescence intensity (a.u.)
6. TTGGGGATTTGTTGGTTGATCTGGGTATATATATCCCACTCGGAGTCACCTAGTGCAG  8200 fluorescence intensity (a.u.)
7. CGTATAATTTTTTTTGCGCGTTTGTGAAAGAAGTATTCAACGGAGTCACCTAGTGCAG  8210 fluorescence intensity (a.u.)
8. AAGCGAACGCGACTTCCCCATTATTATTTTTCTCCTCCTTCGGAGTCACCTAGTGCAG  8210 fluorescence intensity (a.u.)
9. GTAAATCATTTTCTTACTTCATTCAAAATTTTCAATTTTTCGGAGTCACCTAGTGCAG  8250 fluorescence intensity (a.u.)
10. CTTCCGACGTCGTTCTTCCCGCACCACAACCGGACAGATCCGGAGTCACCTAGTGCAG  8320 fluorescence intensity (a.u.)
11. CCCCTCCCGCCGCCGCCACCGCCACCGCCGCCGCCGCCGGCGGAGTCACCTAGTGCAG  8330 fluorescence intensity (a.u.)
12. CGACCAGTACGCGCTACTACTTCTCACTCTTTGCCGCTCGCGGAGTCACCTAGTGCAG  8340 fluorescence intensity (a.u.)
13. CTTTATAGTTCGCGTCCTCCACCTCCTCTTCCCATCTCGCCGGAGTCACCTAGTGCAG  8360 fluorescence intensity (a.u.)
14. ACAGCAGCCGCCGCGCCGGCCGCTCGCCACATTCACACGACGGAGTCACCTAGTGCAG  8370 fluorescence intensity (a.u.)
15. ATGTCTTTCATAGTTCAATAGTTCATGGTTGTGACACTATCGGAGTCACCTAGTGCAG  8380 fluorescence intensity (a.u.)
16. TTTAATCATTTTACCATTTTCTATCCTTTACATGTTTTATCGGAGTCACCTAGTGCAG  8380 fluorescence intensity (a.u.)
17. ACATTTCACGTGATTTTTCTCTTCTCTTCAACCGGAAATTCGGAGTCACCTAGTGCAG  8410 fluorescence intensity (a.u.)
18. TTTTTTCTTTCCTGTCCGATAATAAGTATGTCTGCTTTCCCGGAGTCACCTAGTGCAG  8440 fluorescence intensity (a.u.)
19. CCTACTTGTTGGCTTCTATCTCCTGTTAATTAATTTCTCACGGAGTCACCTAGTGCAG  8450 fluorescence intensity (a.u.)
20. CTATTTCTATTCTGAACCTGCCAAATCCGTTTTATGAAAACGGAGTCACCTAGTGCAG  8530 fluorescence intensity (a.u.)
21. AGTCTCCTCTTCTAATATTCCTTATTTTTTATTCCGAATTCGGAGTCACCTAGTGCAG  8550 fluorescence intensity (a.u.)
22. ATAGATCTTCATTGAGTAAGTTCTGAATTCAAGGGTATTTCGGAGTCACCTAGTGCAG  8580 fluorescence intensity (a.u.)
23. CGCATGTACACGTACTCCTTTCCCCTCCACACCCTCCGAACGGAGTCACCTAGTGCAG  8600 fluorescence intensity (a.u.)
24. GATGACCAATTTTTAATCAGGCCACATCCAGTCCAACCCACGGAGTCACCTAGTGCAG  8610 fluorescence intensity (a.u.)
25. TTTCTTTTTTTTGCCTACCTTTACTTTACACCAAAAACTGCGGAGTCACCTAGTGCAG  8630 fluorescence intensity (a.u.)
26. CGGCGAGTTCTCCTCCATGGGCTTACCTCTCATGAACTATCGGAGTCACCTAGTGCAG  8630 fluorescence intensity (a.u.)
27. CCCATACTTGGCTGTATAACCTACCTTTTCATTCTCTATACGGAGTCACCTAGTGCAG  8640 fluorescence intensity (a.u.)
28. AATTTCACACCATGTTTAGTTGTAAATTTTTTTTTTCAAACGGAGTCACCTAGTGCAG  8640 fluorescence intensity (a.u.)
29. CGCATATATATCTCTCTTTGCATCTGTACTCATCGAATCTCGGAGTCACCTAGTGCAG  8640 fluorescence intensity (a.u.)
30. TTCTCGTGGTATATGGATTGCCTTTTCTTCTTCAGACGACCGGAGTCACCTAGTGCAG  8650 fluorescence intensity (a.u.)
31. CACCTATATACCATGACACAAACTTTCGTTTACCTATCTGCGGAGTCACCTAGTGCAG  8700 fluorescence intensity (a.u.)
32. TTCGTCACACCGACTTAACACTTGGTCATTTCTCATTTGTCGGAGTCACCTAGTGCAG  8710 fluorescence intensity (a.u.)
33. ATCATTGAGGTCAAACTTTATCCACCTCATCATTATTCAGCGGAGTCACCTAGTGCAG  8820 fluorescence intensity (a.u.)
34. ATCCTGTAACCTGTGTAAGTATGCATGTTCCTTCTTTGTCCGGAGTCACCTAGTGCAG  8830 fluorescence intensity (a.u.)
35. GACATGTAGGCCCCACATATTTTGTTTGAACTTTTATTTTCGGAGTCACCTAGTGCAG  8890 fluorescence intensity (a.u.)
36. ATGGGCTCTGCTCTTTTAATTGGGGTTACATGAGGAGGGACGGAGTCACCTAGTGCAG  8900 fluorescence intensity (a.u.)
37. TTTGCAAAATTTGCTGATGTGGCGCTCCTAACTTTCAACCCGGAGTCACCTAGTGCAG  8920 fluorescence intensity (a.u.)
38. GTTATGTTATTATCCCACCCGAGCCACGTTATACTACCCACGGAGTCACCTAGTGCAG  8970 fluorescence intensity (a.u.)
39. CCCCAGAGGTGGGCGGCAGGGTCTATTTTTGTAATTTTTTCGGAGTCACCTAGTGCAG  8990 fluorescence intensity (a.u.)
40. TTACTTAAGATTCCTTTTACAGGTGACGACTCTCCTTTTCCGGAGTCACCTAGTGCAG  9000 fluorescence intensity (a.u.)
41. ATGTGCGTGGTGTGTTTGCCATGGCAAGGGGAGGAAGAGGCGGAGTCACCTAGTGCAG  9020 fluorescence intensity (a.u.)
42. GTCTCGCCTCCGCCGCACTCTCCTCTCTGTCTCCGCCGATCGGAGTCACCTAGTGCAG  9040 fluorescence intensity (a.u.)
43. CGGAGCCAGTCCACTCGTGACCTTTGTCGAGCCATGATTTCGGAGTCACCTAGTGCAG  9040 fluorescence intensity (a.u.)
44. TCTCTTACCACACCTCGTTTGAGTTTATCTCTTACCACCCCGGAGTCACCTAGTGCAG  9070 fluorescence intensity (a.u.)
45. AGGGTATAGGGTAATAGGGATCAAGCGGCTGATGCATACACGGAGTCACCTAGTGCAG  9070 fluorescence intensity (a.u.)
46. CGCCGCCTTCCGTTCCATTTCCATTCCACGACAAACAAACCGGAGTCACCTAGTGCAG  9120 fluorescence intensity (a.u.)
47. CGTCGAGGTGACTCTATTCCCCTAGTTTCCTCTTTCCTTTCGGAGTCACCTAGTGCAG  9140 fluorescence intensity (a.u.)
48. AACCACCACTTTGTCCACTAAAACGCGCTCATGACCAATGCGGAGTCACCTAGTGCAG  9170 fluorescence intensity (a.u.)
49. CTGAACTCTCGAGTCTCAACCCTCGTCGTCGTCGTCTCCACGGAGTCACCTAGTGCAG  9220 fluorescence intensity (a.u.)
50. AATTCGCCCAACCCTATATATTGGCCTCTAACCTCACTTCCGGAGTCACCTAGTGCAG  9240 fluorescence intensity (a.u.)
51. ATCCCACCGCCCAGCGCCGCACCTCCTCTCCTCGTGCTCTCGGAGTCACCTAGTGCAG  9250 fluorescence intensity (a.u.)
52. AATTTTTCTACAATTTTTACACTTAGTTTTGACCTCATTGCGGAGTCACCTAGTGCAG  9440 fluorescence intensity (a.u.)
53. TACGTTTATACCCCTGCGATCCACCGGTACAGCACCATGACGGAGTCACCTAGTGCAG  9470 fluorescence intensity (a.u.)
54. TGACTAATTGATCACCACCTGTTGAATAACCATATAGACTCGGAGTCACCTAGTGCAG  9480 fluorescence intensity (a.u.)
55. TCTCTTGTCCTTTTGGCCCATCCAATTTTGGCCTCAATTTCGGAGTCACCTAGTGCAG  9600 fluorescence intensity (a.u.)
56. CTCGGCTAACTCGACATCAGCTTCCCGACTTTGGCTACATCGGAGTCACCTAGTGCAG  9620 fluorescence intensity (a.u.)
57. TTCAGTTTTTGCTTGCAATGTTTGACCATTCGTCTTATTCCGGAGTCACCTAGTGCAG  9670 fluorescence intensity (a.u.)
58. CGGTTTCTTGATTTTTTTTTTATTTTTTTTTCTCCGGTGACGGAGTCACCTAGTGCAG  9730 fluorescence intensity (a.u.)
59. CTCATGCGGTGGGGAGGGCATCGACGGCCGCCTGTGGCTGCGGAGTCACCTAGTGCAG  9940 fluorescence intensity (a.u.)
60. TTACAATTAACACTACTGTCTATGTCTCAATTCATACTTTCGGAGTCACCTAGTGCAG  9950 fluorescence intensity (a.u.)
61. CATATTTTGGGGTTTAGATTTTTTTGTCGGTCCAATTTTTCGGAGTCACCTAGTGCAG  9980 fluorescence intensity (a.u.)
62. GCCGCTTGCCCTCGCAGCCGCTCCGCCTGCCTCCGCCCACCGGAGTCACCTAGTGCAG  10000 fluorescence intensity (a.u.)
63. CCTCTGCAATCGGTCCAACTGCTGACTACTCCCTACATCTCGGAGTCACCTAGTGCAG  10200 fluorescence intensity (a.u.)
64. ATCTCTCGTCATCTCCATCCTCTCTCGCCATCTCTCCTGTCGGAGTCACCTAGTGCAG  10300 fluorescence intensity (a.u.)
65. TTTTGCTGTTTCTGTTAATGTTCCCGATTTTAGTAAATATCGGAGTCACCTAGTGCAG  10400 fluorescence intensity (a.u.)
66. GCTTTGTTTTTTTCCATTACTCCATTATTTTGTAAAACAACGGAGTCACCTAGTGCAG  10500 fluorescence intensity (a.u.)
67. CAACTTCTAGCTCTAGGTCTCCTGTTTATTCAATCGGTTCCGGAGTCACCTAGTGCAG  10500 fluorescence intensity (a.u.)
68. ATTCCATATTTCCATTCCACACGTCTTGAGAGCTAATCTTCGGAGTCACCTAGTGCAG  10900 fluorescence intensity (a.u.)
69. TTCCTGCTGTTTCTTGTCTGAATCTTTCGCTGCGTTCTTGCGGAGTCACCTAGTGCAG  11000 fluorescence intensity (a.u.)
70. GATCTGGTCCGTTGCTTCAGCTCAGAGCTCTCACCCGTCTCGGAGTCACCTAGTGCAG  11000 fluorescence intensity (a.u.)
71. TGACACCGTTACATTTTCTCTTAATTATTCGGCATCAAGTCGGAGTCACCTAGTGCAG  11300 fluorescence intensity (a.u.)
72. ACCCTCCATGTCATCTAGTTTTCATAGCATTAAATACATTCGGAGTCACCTAGTGCAG  11400 fluorescence intensity (a.u.)
73. CTTCCTTTTGTGTAGATAACTTTGCATGCTTCTGGCCAACCGGAGTCACCTAGTGCAG  11400 fluorescence intensity (a.u.)
74. TCTCTCCCGCTCACTCTTGCTACCTCCGCGCGCGCCTTGTCGGAGTCACCTAGTGCAG  11600 fluorescence intensity (a.u.)
75. TCTATGTTTGTTCTACCGATTCTTCGTCTCATCTGTTGCACGGAGTCACCTAGTGCAG  11700 fluorescence intensity (a.u.)
76. GTGTTGCATTGGCTTTTACTGTTTTACATTTTGCAATTTTCGGAGTCACCTAGTGCAG  12200 fluorescence intensity (a.u.)
77. AGAATTACTGCTGCTTTATTTACTTTTCTTCCATTGGTTTCGGAGTCACCTAGTGCAG  13000 fluorescence intensity (a.u.)
78. GATCTGGCCATGGGGTAGCCTGGGTGGGTTGGGTGGGTGGCGGAGTCACCTAGTGCAG  14200 fluorescence intensity (a.u.)
79. AATGTTAACGGTGCATGTGGTTGGTTGATTTGATTAGTGACGGAGTCACCTAGTGCAG  15300 fluorescence intensity (a.u.)
80. TGACTGGTTCGCGCCCTTTTTTTTTTCTCTCCCGCGTTTTCGGAGTCACCTAGTGCAG  15300 fluorescence intensity (a.u.)
81. GTGAAAAATTTTTGGGTGGGATCTTAACAGGGCGCGCGTACGGAGTCACCTAGTGCAG  16300 fluorescence intensity (a.u.)
82. GTCCGTCTTGTTTTCTCCTGCGTCACAATTGTCCCGTATTCGGAGTCACCTAGTGCAG  18500 fluorescence intensity (a.u.)
83. GTAGGCTTTTGTTTCGGGTGGGATAATATCTTGGGGAAAGCGGAGTCACCTAGTGCAG  20700 fluorescence intensity (a.u.)
84. TAACACCGTTGACTTTTTAGCTCATGTTTGACCATTCGTCCGGAGTCACCTAGTGCAG  27400 fluorescence intensity (a.u.)

From PMC7819943, “Rice protein-binding microarrays: a tool to detect cis-acting elements near promoter regions in rice”
